Our source for the ED50 values is patent publication US6391871B1 (priority 1996, dated 2002).

Structures are written as SMILES.

The ED50 is the dose at which the effect has come halfway, by size or by number of responders. Low values mean an effect at a small dose, high ones a need for a large dose.

In this assay the test system is vacuolated PC/RS neurons. Kind of assay: Safener assay: prevention of MK-801-induced vacuole formation in PC/RS neurons. As to conditions: Rattus norvegicus, Neuron, sc, 4 h. As for the experimental part:
For each test agent, at least 5 dosages of the candidate safener agent were tested, and at least 4 rats were used in each dosage group.
The rats were sacrificed four hours after treatment, for histopathological evaluation. The number of vacuolated PC/RS neurons were counted on each side of the brain, at a rostrocaudal level immediately posterior to where the corpus callosum ceases decussating across the midline (approximately 5.6 mm caudal to bregma).
The result was subtracted from one and multiplied by 100, to calculate a percentage.
The confidence limits, in the right column, were the safener dosages that reduced vacuoles by 25% and 75%.

The compound `CCN(CC)C(=O)N[C@H]1C=C2c3cccc4[nH]cc(c34)C[C@H]2N(C)C1` [Lisuride] showed an ED50 of 0.17 mg/kg.
